Measurements: PubChem BioAssay AID504834 (National Center for Advancing Translational Sciences (NCATS), 2011)
In all, about 320,000 compounds went through this assay and about 22,000 (6.9%) were called active. Inconclusive means that the source gave no clear call. Such entries were picked first, then a sample of the others. Calls follow the shape of the dose curve; as a rule, active = well fitted inhibition curve with a large enough effect; inconclusive = small, poorly fitted or top-dose-only effect, or another doubt; inactive = no such curve, though single readings can be large or run the other way. Potencies beside an inconclusive call are fits to weak or partial responses and may not hold up.
% is scaled to controls: 0 for no effect and ±100 for the full control effect; potency is read from the fitted curve at half-maximal effect.

Assay: Primary qHTS for delayed death inhibitors of the malarial parasite plastid, 96 hour incubation
Conditions: P. falciparum luciferase reporter growth; series mostly up to 28.7 µM
Outline: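 Plates of compound plus infected erythrocytes (2% hematocrit, 0.05% parasitemia final) incubate 96 hours, 37 C, 5% CO2. Detection reagent added; reduced luminescence from the parasites' luciferase reporter flags inhibition.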
In the case of COC(C(=O)N/N=C(\C)c1ccc(C)cc1)c1ccccc1 (centres undefined), the Potency is reported as inconclusive: 10.4 µM [inhibitor, single point].
In the case of CC1CCC(NC(=O)C2CC(=O)N(c3ccc4c(c3)OCCO4)C2)CC1 (centres undefined), the Potency is reported as “inactive”.
In the case of O=C(c1ccco1)N1CCN(CCCCOc2ccc(F)cc2)CC1, the Potency is reported as inconclusive: 20.8 µM [inhibitor, single point].
For Cc1ccc2nc(NC(=O)CCNS(=O)(=O)c3cccs3)sc2c1, the Potency was “inactive”.
For CC(c1c(O)c2ccccc2[nH]c1=O)C1(C)CCC(O)C(C)(C)O1 (centres undefined), the Potency was inconclusive: 10.4 µM [inhibitor, single point].
For COc1ccc(NC(=O)Nc2ccc3c(c2)N(C)C(=O)CS3)cc1Cl, the Potency was inconclusive: 6.57 µM [inhibitor, partial curve, poor fit].
In the case of COC(=O)Nc1ccc(Cn2cc(C(F)(F)F)ccc2=O)cc1, the Potency is reported as inconclusive: 0.233 µM [inhibitor, full curve, poor fit].
In the case of CCN1CCN(c2cc(C)c3cc(NC(=S)N(C)Cc4ccccc4)ccc3n2)CC1, the Potency is reported as “inactive”.
With CCn1cc(C(=O)NCCCN2CCN(C)CC2)c(=O)c2cc(S(=O)(=O)N3CCc4ccccc4C3)ccc21 the Potency was inconclusive: 5.22 µM [inhibitor, partial curve, poor fit].
With CCN1CCN(C2=C(NS(=O)(=O)c3ccc(Br)cc3)C(=O)c3ccccc3C2=O)CC1 the Potency was inconclusive: 4.15 µM [inhibitor, partial curve, poor fit].
For COC(=O)C1=C(Nc2ccc(OC)cc2)C=C(C)C(C(=O)OC)C1c1ccc(C)cc1 (centres undefined), the Potency was “inactive”.
In the case of Cc1cccc(CS(=O)(=O)Cc2ccc(C(=O)NCc3ccccc3)o2)c1, the Potency is reported as inconclusive: 18.5 µM [inhibitor, single point].
In the case of CC1CC(C)CN(CC(O)COCCOc2ccc(Br)cc2)C1 (centres undefined), the Potency is reported as inconclusive: 18.5 µM [inhibitor, single point].
With O=C(Nc1cccc(F)c1)/C(=C\c1cccnc1)NC(=O)c1ccco1 the Potency was “inactive”.
With COc1cccc(CNc2ccc(F)c([N+](=O)[O-])c2)c1O the Potency was “inactive”.
For Cc1c(C(=O)N2CCCCC2)c(S(=O)(=O)NCCc2ccc(S(N)(=O)=O)cc2)c(C)n1C, the Potency was inconclusive: 18.5 µM [inhibitor, single point].
For COc1ccc2[nH]c(C)c(CCNCc3cc(OC)c4c(c3)OCO4)c2c1, the Potency was inconclusive: 4.15 µM [inhibitor, full curve].
In the case of CCCSc1cc(N)cc([N+](=O)[O-])c1, the Potency is reported as inconclusive: 2.08 µM [inhibitor, full curve, poor fit].
In the case of Cc1cc(NC(=O)c2cc(C3CC3)on2)n(-c2ccccc2)n1, the Potency is reported as active: 2.62 µM.
For O=c1c2ccccc2nc(CSc2nnnn2-c2ccccc2)n1-c1ccccc1Cl, the Potency was active: 11.7 µM.
For CC(Cc1ccccc1)N1C(=O)c2cccc([N+](=O)[O-])c2C1=O (centres undefined), the Potency was “inactive”.
With CC(=O)NS(=O)(=O)c1ccc(N=c2ssc3c2-c2cc(C)ccc2NC3(C)C)cc1 the Potency was inconclusive: 10.4 µM [inhibitor, single point].
With CC1CCN(C(=O)c2ccccc2SCC(=O)NCC2CCCCC2)CC1 the Potency was inconclusive: 20.8 µM [inhibitor, partial curve, poor fit].
With C=CCOc1ccccc1CN1CCC(Oc2ccc(C(=O)N3CCCCC3)cc2)CC1 the Potency was active: 10.4 µM.
In the case of COc1ccc(S(=O)(=O)Nc2cccc(S(=O)(=O)N3CCCCCC3)c2)cc1, the Potency is reported as inconclusive: 0.185 µM [inhibitor, full curve, poor fit].
In the case of COc1cccc(OCc2cc(C(=O)N3CCN(c4ccccc4O)CC3)no2)c1, the Potency is reported as inconclusive: 13.1 µM [inhibitor, partial curve].
For O=C(O)CCN1C(=O)c2ccncc2C1=O, the Potency was “inactive”.
For O=C(NC1CS(=O)(=O)CC1NCc1ccco1)c1ccccc1 (centres undefined), the Potency was inconclusive: 11.7 µM [inhibitor, single point].
For Clc1ccc(-c2nnc3sc(-c4ccc(Br)o4)nn23)cc1, the Potency was inconclusive: 9.28 µM [inhibitor, partial curve, poor fit].
With O=C(O)CSc1nnc(-c2ccncc2)n1C1CCCCC1 the Potency was inconclusive: 9.28 µM [inhibitor, partial curve, poor fit].
In the case of O=C1CC2(CCN(C(=O)c3cccc(F)c3)CC2)Oc2ccccc21, the Potency is reported as “inactive”.
In the case of O=C(NN=C1CCCCCCC1)C(=O)NC1CCCCC1, the Potency is reported as inconclusive: 13.1 µM [inhibitor, single point].
With Cc1ncc(COP(=O)(O)O)c(C=O)c1O the Potency was “inactive”.
For Cc1ccc(-n2nnc3c(=O)n(Cc4ccccc4C)cnc32)cc1, the Potency was “inactive”.
For CCC(=O)NC(c1ccco1)c1cc(Br)c2cccnc2c1O (centres undefined), the Potency was inconclusive: 2.33 µM [inhibitor, partial curve, poor fit].
In the case of Cc1cccc2c1OCC/C2=N\NC(=O)COc1ccccc1, the Potency is reported as “inactive”.
For O=C(CN(c1ccc(Cl)cc1)S(=O)(=O)c1ccc(Cl)c([N+](=O)[O-])c1)NCCc1ccc(F)cc1, the Potency was active: 11.7 µM.
With CN(C)c1ccc(C(=O)C(=O)c2ccccc2)cc1 the Potency was inconclusive: 13.1 µM [inhibitor, single point].
In the case of O=C(CSCC(=O)Nc1nccs1)Nc1ccccc1, the Potency is reported as inconclusive: 18.5 µM [inhibitor, single point].
In the case of Cc1cc(CNC(=O)c2ccc3nc(Cc4ccccc4F)oc3c2)nn1C, the Potency is reported as active: 2.08 µM.
With COc1ccccc1OCc1ccc(C(=O)N(C)c2ccccc2)o1 the Potency was “inactive”.
With Cc1cccc(Nc2nc(-c3ccc(O)cc3O)cs2)n1 the Potency was “inactive”.
In the case of NC(=O)c1ccc(NC(=O)COc2cccc3ccccc23)cc1, the Potency is reported as “inactive”.
With Cc1ccc(/C=C2\SC(=S)N(CC3CCCO3)C2=O)o1 (centres undefined) the Potency was inconclusive: 7.38 µM [inhibitor, partial curve, poor fit].
With CC(C)Oc1ccc(C(CCNCc2ccc(O)cc2)c2ccccc2)cc1 (centres undefined) the Potency was active: 1.17 µM.
For COc1ccccc1OCCSc1nnc(C)n1-c1ccccc1, the Potency was inconclusive: 18.5 µM [inhibitor, single point].
For N#Cc1cccc(C(c2nnnn2CCc2ccccc2)N2CCN(C3CCCCC3)CC2)c1 (centres undefined), the Potency was inconclusive: 13.1 µM [inhibitor, single point].
In the case of COc1ccc(-c2nc3ccc([N+](=O)[O-])cc3[nH]2)cc1, the Potency is reported as inconclusive: 13.1 µM [inhibitor, single point].
With Cc1ccnc(N2C(=O)C3C4CC(C(Br)C4Br)C3C2=O)c1 (centres undefined) the Potency was active: 9.28 µM.
For CCN1C(=NCC(C)C)N[C@@H](c2ccccc2)[C@H](C(=O)OC)[C@H]1C, the Potency was inconclusive: 11.7 µM [inhibitor, single point].
With Cc1cc(C)cc(Cn2ncc(Cl)c(Cl)c2=O)c1 the Potency was “inactive”.
For CN1C2CC(OC(=O)C(CO)c3ccccc3)CC1C1OC12 (centres undefined), the Potency was inconclusive: 18.5 µM [inhibitor, single point].
In the case of COc1ccc(CN2CCC(=O)N(CCO)CC2)cc1OC, the Potency is reported as “inactive”.
For O=c1c2ccccc2nnn1CSc1nnc2sc3ccccc3n12, the Potency was “inactive”.
For CN(CC(=O)N1CCCCCC1)S(=O)(=O)c1ccccc1, the Potency was inconclusive: 0.828 µM [inhibitor, single point].
With CCCCNC(=S)N1CCN(c2nc3ccccc3s2)CC1 the Potency was inconclusive: 13.1 µM [inhibitor, single point].
With O=C(NCc1ccc(F)cc1)Nc1ccccc1 the Potency was “inactive”.
In the case of CCCC(=O)NC(NC(=S)Nc1ccc(N=Nc2ccccc2)cc1)C(Cl)(Cl)Cl (centres undefined), the Potency is reported as “inactive”.
With CCOc1ccc(N/C(SC)=C(/C#N)C(N)=O)cc1 the Potency was inconclusive: 5.86 µM [inhibitor, partial curve].
In the case of CC(=O)Nc1ccc(OCC=C(Cl)Cl)cc1, the Potency is reported as “inactive”.
With COc1ccc(N2C(=O)C(F)(F)C2c2ccccc2F)cc1 (centres undefined) the Potency was inconclusive: 0.522 µM [inhibitor, partial curve, poor fit].
With Cc1ccc(S(=O)(=O)Nc2cc(=O)[nH]c(SCC(=O)Nc3ccccc3Cl)n2)cc1 the activity change, negative = inhibition was inactive: 22.5% [at 5.75 µM].
With CCOC(=O)CSc1n[nH]c(NC(=O)NC(C)C)n1 the Potency was “inactive”.
In the case of CCOC(=O)c1c(-c2ccccc2)csc1NC(=O)CSc1nnc(C)s1, the Potency is reported as inconclusive: 16.5 µM [inhibitor, single point].
With C/C(CC(=O)Nc1ccc(N(C)C)cc1)=N\NC(=O)c1ccccc1O the Potency was “inactive”.
With CC(Sc1nc2ccccc2s1)C(=O)NC1CCCc2ccccc21 (centres undefined) the Potency was inconclusive: 11.7 µM [inhibitor, single point].
In the case of Cc1ccc(-n2c(Cn3c(C)nc4ccccc43)n[nH]c2=S)cc1, the Potency is reported as inconclusive: 18.5 µM [inhibitor, single point].
For O=C(CCN1C(=O)/C(=C\c2ccccc2F)SC1=S)N1CCCCC1, the Potency was inconclusive: 18.5 µM [inhibitor, single point].
For CCOCCCn1c(C)nc2c(c1=O)c1nc3ccccc3nc1n2CCC1=CCCCC1, the Potency was active: 2.62 µM.
In the case of O=C(/C=C/c1ccco1)Nc1ccc2nc3n(c(=O)c2c1)CCCC3, the Potency is reported as inconclusive: 1.04 µM [inhibitor, full curve, poor fit].
With CCCN1CCN(S(=O)(=O)c2ccc(-c3cc(C)no3)s2)CC1 the Potency was inconclusive: 10.4 µM [inhibitor, single point].
With COC(=O)c1ccc(OC(=O)CCN2C(=O)C3CCCCC3C2=O)cc1 (centres undefined) the Potency was inconclusive: 11.7 µM [inhibitor, single point].
For Cc1cccc(C(=O)N/C(=C\c2ccco2)C(=O)N2CCCCCC2)c1, the Potency was inconclusive: 10.4 µM [inhibitor, partial curve].
For CCn1c(C)cc(/C=C2\NC(=O)N(Cc3ccccc3)C2=O)c1C, the Potency was inconclusive: 11.7 µM [inhibitor, partial curve, poor fit].
